± gives the standard deviation. The list shows a part of the results, in another mix than the full data. Many of these values have a large error. Some of the results follow.
Assays:
[1] = tested on: MIWI (PIWIL1) piRISC loaded with L1MC piRNA (30 nt); test: pre-steady-state target cleavage rate (min^-1); higher = faster piRNA-guided slicing of the target; details: guide: L1MC piRNA 5'p-UAACUAAAUACUAUGCAAGCUGUAGGUCCU
Method in brief: (§1)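 Active affinity-purified piRISC (1 nM) loaded with one synthetic guide was mixed with a transcribed, DNA-blocked target RNA library (0.1 nM), with or without 500 nM GTSF1 partner protein, in HEPES–potassium acetate buffer at 33 °C for 0–8 or 0–960 min. Uncleaved targets were sequenced, normalised to depth and to weakly complementary targets, and pooled across three trials, with k3 capped at 0.0001 min^-1. The pre-steady-state cleavage rate was determined with a burst-and-steady-state fit.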

[2] = tested on: EfPiwi piRISC loaded with L1MC piRNA (26 nt); test: pre-steady-state target cleavage rate (min^-1); guide: L1MC piRNA 5'p-UAACUAAAUACUAUGCAAGCUGUAGG; higher = faster piRNA-guided slicing of the target
Method in brief: as §1

[3] = tested on: MILI (PIWIL2) piRISC loaded with L1MC piRNA (26 nt); test: pre-steady-state target cleavage rate (min^-1); MIWI and MILI are mouse PIWI proteins and EfPiwi is from a freshwater sponge; tags in brackets are library labels; higher = faster piRNA-guided slicing of the target; details: guide: L1MC piRNA 5'p-UAACUAAAUACUAUGCAAGCUGUAGG
Method in brief: as §1

[4] = auxiliary factor: 500 nM mouse GTSF1
[5] = auxiliary factor: none (no GTSF1)
[6] = auxiliary factor: 500 nM Ephydatia muelleri Gtsf1
[7] = auxiliary factor: none (no Gtsf1)

## UCCUGCCUACAGCUUGCAUAGUAUUUAGUUA
[1]; [4]
  pre-steady-state target cleavage rate: 1.33 ± 0.091
[1]; [5]
  pre-steady-state target cleavage rate: 0.0623 ± 0.014
[2]; [6]
  pre-steady-state target cleavage rate: 0.0909 ± 0.021

## UCCUGGAUGUCGAUGCAUAUUAUUUAGUUA
[1]; [4]
  pre-steady-state target cleavage rate: 0.00245 ± 0.0044
[1]; [5]
  pre-steady-state target cleavage rate: 0.00112 ± 0.0058
[2]; [6]
  pre-steady-state target cleavage rate: 0.0047 ± 0.0036

## UCCUGGAUGAGCUUCCAUAGUAUUUAGAAA
[1]; [4]
  pre-steady-state target cleavage rate: 0.00168 ± 0.0071
[1]; [5]
  pre-steady-state target cleavage rate: 0.000975 ± 0.0063
[2]; [6]
  pre-steady-state target cleavage rate: 0.00248 ± 0.0019

## UCCUGGAUCAGCUUGCUAAGUAUUUAGAAA
[1]; [4]
  pre-steady-state target cleavage rate: 0.00237 ± 0.0056
[1]; [5]
  pre-steady-state target cleavage rate: 0.00181 ± 0.0039
[2]; [6]
  pre-steady-state target cleavage rate: 0.000393 ± 0.0076

## UCCUGGAUGUCGAACCAUACUAUUUUGUUA
[3]; [5]
  pre-steady-state target cleavage rate: 0.00033 ± 0.0096

## UCCUGGAACAGCUUGCAAUAGUAUUUAGUUA
[3]; [5]
  pre-steady-state target cleavage rate: 0.00204 ± 0.0032

## UCCUGCAAGAGCUUGCAUAGUAUUUAGUUA
[3]; [4]
  pre-steady-state target cleavage rate: 0.292 ± 0.025

## UCCUGGUACAGCUUGCAUAGGUAUUUAGUUA
[1]; [4]
  pre-steady-state target cleavage rate: 0.00444 ± 0.006
[1]; [5]
  pre-steady-state target cleavage rate: 0.000438 ± 0.014
[2]; [6]
  pre-steady-state target cleavage rate: 0.0023 ± 0.0042

## UCCUGGAUGUCGAAGCACUAGUAUUUAGUUA
[3]; [5]
  pre-steady-state target cleavage rate: 0.000393 ± 0.013

## UCCUGGAUGUCCUUGCAUUGUAAUUAGUUA
[1]; [4]
  pre-steady-state target cleavage rate: 0.00155 ± 0.0073
[1]; [5]
  pre-steady-state target cleavage rate: 0.00107 ± 0.0079
[2]; [6]
  pre-steady-state target cleavage rate: 0.00164 ± 0.0044

## UCCUGGAUGUCCUUGAUAGUAUUUAGUUA
[1]; [4]
  pre-steady-state target cleavage rate: 0.00369 ± 0.0043
[1]; [5]
  pre-steady-state target cleavage rate: 0.00174 ± 0.0034
[2]; [6]
  pre-steady-state target cleavage rate: 0.000418 ± 0.0083

## UCCUGCUACACCUUGCAUAGAAUUUAGUUA
[3]; [5]
  pre-steady-state target cleavage rate: 0.000785 ± 0.0086

## UCCUGGAACAGCUUGCAUGUAUUUAGUUA
[1]; [4]
  pre-steady-state target cleavage rate: 0.103 ± 0.015
[1]; [5]
  pre-steady-state target cleavage rate: 0.00591 ± 0.0032
[2]; [7]
  pre-steady-state target cleavage rate: 0.00227 ± 0.0055

## UCCUCGAUCAGCUUGCAUAGUAUUUUCAAA
[3]; [5]
  pre-steady-state target cleavage rate: 0.00151 ± 0.0034

## UCCUGGAACUGCUUGCAUAGUAUUUAGAUA
[3]; [5]
  pre-steady-state target cleavage rate: 0.00195 ± 0.004

## UCCUGGAUGUGGUUGCAUAGUAAUUAGUUA
[1]; [4]
  pre-steady-state target cleavage rate: 0.00355 ± 0.0054
[1]; [5]
  pre-steady-state target cleavage rate: 0.00277 ± 0.0039
[2]; [7]
  pre-steady-state target cleavage rate: 0.0043 ± 0.0054

## UCCUGGAUGUCGUUGCAUUGUAUUAAGUUA
[3]; [5]
  pre-steady-state target cleavage rate: 0.000176 ± 0.036

## UCCUGGAUCAGCUUGCUAGUAUUUAGUUA
[1]; [4]
  pre-steady-state target cleavage rate: 0.00354 ± 0.004
[1]; [5]
  pre-steady-state target cleavage rate: 0.00166 ± 0.0033
[2]; [6]
  pre-steady-state target cleavage rate: 0.00126 ± 0.0046

## UCCUCCUACAGCUUGGUUAGUAUUUAGUAA
[1]; [4]
  pre-steady-state target cleavage rate: 0.523 ± 0.043
[1]; [5]
  pre-steady-state target cleavage rate: 0.00502 ± 0.0015
[2]; [6]
  pre-steady-state target cleavage rate: 0.00533 ± 0.0032

## UCCUCGAUCAGCUUGCAUAGUAUUUAGUAA
[1]; [4]
  pre-steady-state target cleavage rate: 1.06 ± 0.048
[1]; [5]
  pre-steady-state target cleavage rate: 0.04 ± 0.0086
[2]; [6]
  pre-steady-state target cleavage rate: 0.00989 ± 0.0033

## UCCUGGAUGUCGUUGCAUAGUAAUUAGUUA
[1]; [4]
  pre-steady-state target cleavage rate: 0.00166 ± 0.0055
[1]; [5]
  pre-steady-state target cleavage rate: 0.00182 ± 0.0041
[2]; [6]
  pre-steady-state target cleavage rate: 0.00243 ± 0.0026

## UCCUGGAUGAGCUUGCGAUAGUAUUUAGUUA
[1]; [4]
  pre-steady-state target cleavage rate: 0.00269 ± 0.0038
[1]; [5]
  pre-steady-state target cleavage rate: 0.000333 ± 0.0082
[2]; [7]
  pre-steady-state target cleavage rate: 0.0011 ± 0.0088

## UCCUGGAUGUCCUUGCUUUGUAUUUAGUUA
[1]; [4]
  pre-steady-state target cleavage rate: 0.00339 ± 0.0037
[1]; [5]
  pre-steady-state target cleavage rate: 0.00177 ± 0.0048
[2]; [6]
  pre-steady-state target cleavage rate: 0.000814 ± 0.0066

## UCCUGGAUGUCGAACCAUAGUAUUUAGGUUA
[3]; [5]
  pre-steady-state target cleavage rate: 0.000277 ± 0.014

## UCCUGGAUGUCGAUGCAUAGUAUUUAGUA
[1]; [4]
  pre-steady-state target cleavage rate: 0.0012 ± 0.0081
[1]; [5]
  pre-steady-state target cleavage rate: 0.00194 ± 0.0037
[2]; [6]
  pre-steady-state target cleavage rate: 0.00117 ± 0.0057

## UCCUGGAUGUGCAACCAUAGUAUUUAGUAA
[1]; [4]
  pre-steady-state target cleavage rate: 0.0021 ± 0.0046
[1]; [5]
  pre-steady-state target cleavage rate: 0.000916 ± 0.0083
[2]; [6]
  pre-steady-state target cleavage rate: 0.000246 ± 0.016

## UCCUCCUACAGCUUGCGUAGUAUUUAGUUA
[1]; [4]
  pre-steady-state target cleavage rate: 1.55 ± 0.078
[1]; [5]
  pre-steady-state target cleavage rate: 0.0225 ± 0.0064
[2]; [6]
  pre-steady-state target cleavage rate: 0.031 ± 0.011

## UCCUGGAUGUGCUUGCAUAGAUUUUAGUAA
[1]; [4]
  pre-steady-state target cleavage rate: 0.00109 ± 0.01
[1]; [5]
  pre-steady-state target cleavage rate: 0.000983 ± 0.0055
[2]; [6]
  pre-steady-state target cleavage rate: 0.000735 ± 0.006

## UCCUGGAUGUCGUUGCAUAGUAUCUUAGUUA
[1]; [4]
  pre-steady-state target cleavage rate: 0.00169 ± 0.0065
[1]; [5]
  pre-steady-state target cleavage rate: 0.00106 ± 0.0074
[2]; [6]
  pre-steady-state target cleavage rate: 0.000336 ± 0.018

Source: the supplement of paper PMC10338343
